# Test results reported in patent US20230295301A1.
# Amino acid sequences for entries named in this document (tags omitted). A change or cut given only in a name is not applied to a line headed by its entry.
# UniProt P16410: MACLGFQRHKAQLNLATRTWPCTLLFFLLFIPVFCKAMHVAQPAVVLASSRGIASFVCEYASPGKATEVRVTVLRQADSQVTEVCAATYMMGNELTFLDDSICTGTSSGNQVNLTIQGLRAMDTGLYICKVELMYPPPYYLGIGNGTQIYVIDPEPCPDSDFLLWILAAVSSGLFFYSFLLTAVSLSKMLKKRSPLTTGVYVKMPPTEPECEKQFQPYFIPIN
# Substitutions are numbered along the chain they refer to. Results are given in words; binding and its absence hold for the method and conditions named. Some binding calls cover weakened binding; strength is not graded here.
# B1: HuJS007-91 (antibody, V domains shown)
# VH: QVQLQESGPGLVKPSQTLSLTCAVSGYSISSGYYWNWIRQPPGKGLEWIGYIGYDGSNYYNPSLKSRITISRDTSKNQFSLKLSSVTAVDTAVYYCARNYYSGYFDSWGQGTTVTVSS
# VL: DIVMTQSPDSLAVSLGERATINCKASQNVGTYVAWYQQKPGQPPKPLIYSTSYRYSGVPDRFSGSGSGTDFTLTISSLQAEDVAVYFCHQYDTYPLTFGAGTKLELK
# B2: HuJS007-92 (antibody, V domains shown)
# VH: B1 VH
# VL: DIQMTQSPSSLSASVGDRVTITCRASQNVGTYVAWYQQKPGKVPKPLIYSTSYRYSGVPSRFSGSGSGTDFTLTISSLQPEDVATYFCHQYDTYPLTFGAGTKLELK
# B3: HuJS007-96 (antibody, V domains shown)
# VH: B1 VH
# VL: B1 VL with P46L, F87Y, A100Q, L106I
# B4: HuJS007-5 (antibody, V domains shown)
# VH: B1 VH with A23T, P41H, I68V, V89A, Y95F, S107F, V114L
# VL: B2 VL with R24Q, V43A, L73F, V83I
# B5: HuJS007-93 (antibody, V domains shown)
# VH: B1 VH
# VL: B2 VL with V43A, V83F
# B6: HuJS007-3 (antibody, V domains shown)
# VH: B1 VH with A23T, P41H, I68V, V89A, Y95F, S107F, V114L
# VL: B2 VL with V43A, V83F
# B7: HuJS007-97 (antibody, V domains shown)
# VH: B1 VH
# VL: EIVMTQSPATLSVSPGERATLSCRASQNVGTYVAWYQQKPGQAPRPLIYSTSYRYSGIPARFSGSGSGTEFTLTISSLQSEDFAVYYCHQYDTYPLTFGQGTKLEIK
# B8: HuJS007-1 (antibody, V domains shown)
# VH: B1 VH with A23T, P41H, I68V, V89A, Y95F, S107F, V114L
# VL: B1 VL
# B9: HuJS007-95 (antibody, V domains shown)
# VH: B1 VH
# VL: B2 VL with R24Q, V43A, L73F, V83I
# B10: HuJS007-98 (antibody, V domains shown)
# VH: B1 VH
# VL: B1 VL with A100Q, L106I
# B11: HuJS007-2 (antibody, V domains shown)
# VH: B1 VH with A23T, P41H, I68V, V89A, Y95F, S107F, V114L
# VL: B2 VL
# B12: HuJS007-4 (antibody, V domains shown)
# VH: B1 VH with A23T, P41H, I68V, V89A, Y95F, S107F, V114L
# VL: B2 VL with S10F, V43A, D70E, V83F
# B13: HuJS007-94 (antibody, V domains shown)
# VH: B1 VH
# VL: B2 VL with S10F, V43A, D70E, V83F
# B14: HuJS007-99 (antibody, V domains shown)
# VH: B1 VH
# VL: B7 VL with R24K, Y87F
# Molecular target: huCTLA-4 ECD (his-tag) (human) (UniProt P16410)
# Assay: ELISA, coated huCTLA-4 his
row,binding,Binder
1,binds,B1
2,binds,B2
3,binds,B3
4,binds,B4
5,binds,B5
6,binds,B6
7,binds,B7
8,binds,B8
9,binds,B9
10,binds,B10
11,binds,B11
12,binds,B12
13,binds,B13
14,binds,B14
